These are yes or no findings as the source states them, for the method shown. For some assays here: Binding seen in cells or lysates may run through a third protein. Some binding calls cover weakened binding; strength is not graded here. For some assays here: Where a sequence is shown, tags or fusion partners need not be part of it.
Tests used:
[1] = target: T1, HA-tagged full size LARP6 (La ribonucleoprotein domain family member 6) (UniProt Q9BRS8); assay: co-IP; HA-tagged LARP6 constructs expressed in HEK293 cells; IP with anti-HA antibody, Western blot with anti-FKBP3 antibody; lysis in isotonic buffer, protein A/G beads, washes with PBS with 0.5% NP-40
T1 sequence: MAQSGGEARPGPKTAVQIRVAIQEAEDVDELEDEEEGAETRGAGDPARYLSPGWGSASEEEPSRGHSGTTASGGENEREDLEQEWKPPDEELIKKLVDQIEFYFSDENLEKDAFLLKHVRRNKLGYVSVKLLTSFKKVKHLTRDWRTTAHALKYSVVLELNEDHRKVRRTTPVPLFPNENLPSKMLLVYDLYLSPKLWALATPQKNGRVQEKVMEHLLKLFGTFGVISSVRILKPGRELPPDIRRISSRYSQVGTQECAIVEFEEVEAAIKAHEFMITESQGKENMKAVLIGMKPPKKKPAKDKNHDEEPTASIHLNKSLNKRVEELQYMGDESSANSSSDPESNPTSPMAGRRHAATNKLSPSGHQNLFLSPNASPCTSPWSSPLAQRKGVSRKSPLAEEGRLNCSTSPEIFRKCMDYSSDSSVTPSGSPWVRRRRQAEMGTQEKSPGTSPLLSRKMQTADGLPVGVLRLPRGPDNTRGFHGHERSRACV

Chains of the proteins cited; added tags and fusions are not shown. Residues count along the entry.
UniProt P02751, residues 32-2477: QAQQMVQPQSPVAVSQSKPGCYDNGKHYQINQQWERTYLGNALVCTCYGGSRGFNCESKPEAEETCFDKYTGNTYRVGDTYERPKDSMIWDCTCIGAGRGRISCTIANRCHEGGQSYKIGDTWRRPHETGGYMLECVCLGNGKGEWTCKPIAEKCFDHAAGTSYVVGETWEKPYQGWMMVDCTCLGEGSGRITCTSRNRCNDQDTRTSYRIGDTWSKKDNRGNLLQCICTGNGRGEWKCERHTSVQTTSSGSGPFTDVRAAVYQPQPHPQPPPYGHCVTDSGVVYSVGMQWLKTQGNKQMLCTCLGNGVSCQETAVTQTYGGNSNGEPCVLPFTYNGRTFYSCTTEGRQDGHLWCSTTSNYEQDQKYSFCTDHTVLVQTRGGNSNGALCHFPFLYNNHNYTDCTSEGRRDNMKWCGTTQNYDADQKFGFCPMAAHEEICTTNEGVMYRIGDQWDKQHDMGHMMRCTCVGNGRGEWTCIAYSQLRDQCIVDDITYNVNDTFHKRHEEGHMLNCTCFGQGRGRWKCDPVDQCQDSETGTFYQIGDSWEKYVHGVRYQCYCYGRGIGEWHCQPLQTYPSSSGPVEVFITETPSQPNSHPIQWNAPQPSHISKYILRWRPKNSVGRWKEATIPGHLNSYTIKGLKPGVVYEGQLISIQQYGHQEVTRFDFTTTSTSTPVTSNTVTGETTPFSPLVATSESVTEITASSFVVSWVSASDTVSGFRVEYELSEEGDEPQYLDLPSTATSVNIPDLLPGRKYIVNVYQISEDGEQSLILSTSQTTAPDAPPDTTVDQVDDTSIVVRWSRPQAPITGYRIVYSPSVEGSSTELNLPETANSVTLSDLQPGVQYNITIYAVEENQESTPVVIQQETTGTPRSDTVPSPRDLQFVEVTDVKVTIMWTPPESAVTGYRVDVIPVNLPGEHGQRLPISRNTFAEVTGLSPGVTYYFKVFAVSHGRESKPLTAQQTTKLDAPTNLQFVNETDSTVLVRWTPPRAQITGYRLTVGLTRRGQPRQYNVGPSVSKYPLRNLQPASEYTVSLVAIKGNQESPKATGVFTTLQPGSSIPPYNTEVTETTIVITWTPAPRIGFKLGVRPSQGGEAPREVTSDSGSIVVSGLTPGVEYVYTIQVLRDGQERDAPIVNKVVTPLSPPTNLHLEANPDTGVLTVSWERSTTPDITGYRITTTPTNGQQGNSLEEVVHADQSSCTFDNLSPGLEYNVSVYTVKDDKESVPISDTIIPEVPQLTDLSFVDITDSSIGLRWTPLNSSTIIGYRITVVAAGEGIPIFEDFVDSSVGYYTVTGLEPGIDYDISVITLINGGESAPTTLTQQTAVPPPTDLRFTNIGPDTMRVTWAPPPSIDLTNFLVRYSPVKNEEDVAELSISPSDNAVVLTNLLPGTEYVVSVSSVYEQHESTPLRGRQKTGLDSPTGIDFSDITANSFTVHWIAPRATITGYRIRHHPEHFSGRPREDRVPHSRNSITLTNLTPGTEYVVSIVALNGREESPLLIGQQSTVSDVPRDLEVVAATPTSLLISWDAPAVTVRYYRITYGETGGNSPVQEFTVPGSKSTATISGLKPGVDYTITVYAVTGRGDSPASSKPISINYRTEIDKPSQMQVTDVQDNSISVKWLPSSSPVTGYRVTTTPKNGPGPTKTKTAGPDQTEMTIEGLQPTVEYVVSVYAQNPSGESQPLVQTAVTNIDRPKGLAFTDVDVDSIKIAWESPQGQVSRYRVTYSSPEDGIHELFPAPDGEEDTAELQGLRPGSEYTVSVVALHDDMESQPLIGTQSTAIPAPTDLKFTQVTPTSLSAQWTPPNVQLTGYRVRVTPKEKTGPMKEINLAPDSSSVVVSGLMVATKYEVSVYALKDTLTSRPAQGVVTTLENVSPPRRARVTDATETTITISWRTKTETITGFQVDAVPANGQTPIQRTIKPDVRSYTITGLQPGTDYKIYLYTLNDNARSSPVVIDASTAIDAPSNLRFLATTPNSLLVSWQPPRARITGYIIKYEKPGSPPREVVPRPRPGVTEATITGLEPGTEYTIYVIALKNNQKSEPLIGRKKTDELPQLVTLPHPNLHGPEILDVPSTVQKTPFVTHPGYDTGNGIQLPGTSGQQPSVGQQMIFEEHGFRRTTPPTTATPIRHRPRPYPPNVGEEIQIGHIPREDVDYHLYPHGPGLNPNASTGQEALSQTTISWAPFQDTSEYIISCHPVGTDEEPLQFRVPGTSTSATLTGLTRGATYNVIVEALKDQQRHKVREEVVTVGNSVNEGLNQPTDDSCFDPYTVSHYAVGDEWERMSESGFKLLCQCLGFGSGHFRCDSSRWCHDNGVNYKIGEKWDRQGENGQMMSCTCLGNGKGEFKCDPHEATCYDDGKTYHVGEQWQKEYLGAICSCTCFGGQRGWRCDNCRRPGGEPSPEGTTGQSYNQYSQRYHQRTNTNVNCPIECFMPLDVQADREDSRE

[2] = target: T2, FK506 binding protein 3 (FKBP3), endogenous (human (endogenous in HEK293 and human lung fibroblasts)) (UniProt Q00688); assay: co-IP; FKBP3/LARP6 pull downs repeated in scleroderma skin fibroblasts; data not shown
T2 sequence: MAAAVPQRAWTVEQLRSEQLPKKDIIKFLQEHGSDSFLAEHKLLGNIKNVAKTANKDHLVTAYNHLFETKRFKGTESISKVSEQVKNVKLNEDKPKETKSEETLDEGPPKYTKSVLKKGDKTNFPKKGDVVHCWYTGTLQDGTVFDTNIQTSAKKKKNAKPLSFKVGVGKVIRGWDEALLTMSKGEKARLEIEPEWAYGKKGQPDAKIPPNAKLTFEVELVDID

[3] = target: T2, FK506 binding protein 3 (FKBP3), endogenous (human (endogenous in HEK293 and human lung fibroblasts)); assay: co-IP; endogenous proteins in HLFs, untreated or treated with 2 µM FK506; IP with anti-FKBP3 antibody (control: anti-fibronectin antibody or no antibody), Western blot with anti-LARP6 antibody
[4] = target: fibronectin, endogenous (human (endogenous in human lung fibroblasts)) (UniProt P02751); assay: as above
[5] = target: T3, LARP6, yeast two-hybrid fusion (UniProt Q9BRS8); assay: two-hybrid; yeast two-hybrid screening with LARP6; details in preparation
T3 sequence: T1 sequence

B1: FK506 binding protein 3 (FKBP3), endogenous (protein, UniProt Q00688 1-224)
chain: T2 sequence
Q: Which binding [1] does the source give for B1 here?
A: Its binding is “binds”.

B2: La ribonucleoprotein domain family member 6 (LARP6), endogenous (protein, UniProt Q9BRS8 1-491)
chain: T1 sequence
Q: For B2, which binding [2] is on record?
A: The binding was “binds”.

Q: What about the binding [3] of the same binder?
A: Its binding is “binds”.

Q: And the binding [4]?
A: The binding was “no binding”.

B3: FKBP3, yeast two-hybrid clone (protein, UniProt Q00688 1-224)
chain: T2 sequence
Q: With B3 as the binder, how does the binding [5] read?
A: Its binding is “binds”.

Source: article PMC3670911
